Data as given in article PMC12040169 (PLOS Biology, 2025).
This is one part of the list.

Each compound was assayed on T1, CTL2-GFP (C. trachomatis L2/434/Bu, GFP-expressing). Settings: bulk GFP, single well; 28.5 h, 10 µM; inhibitor.
T1 construct: L2/434/Bu, GFP-expressing
Design: species or system HeLa; Intracellular C. trachomatis growth in HeLa cells, bulk GFP fluorescence relative to DMSO
In the case of `O=C1NN=C(c2ccccc2)CC1c1c[nH]c2ccccc12` (stereo not drawn) [CBK288235], the “% of control remaining” value is reported as 110.18%. In the case of `O=C(NC1Cc2ccccc2C1)c1nccc2ccccc12` [CBK200356], the “% of control remaining” value is reported as 101.951%. For `Cn1c(SCC(=O)c2ccc([N+](=O)[O-])cc2)nnc1-c1ccc(N)cc1` [CBK264843], the “% of control remaining” value was 109.842%. For `CC1CC(=O)C2=C(C1)NN=C(c1cccc(C(F)(F)F)c1)C2` (stereo not drawn) [CBK020138], the “% of control remaining” value was 125.323%. `COc1ccc(N(CC(=O)Nc2cccnc2)S(=O)(=O)c2ccc(C)cc2)cc1` [CBK264033] was tested, and the “% of control remaining” value was 110.558%. In the case of `COc1ccc(C(=O)N2CCCN(Cc3ccc(C#N)cc3)CC2)cc1` [CBK305374], the “% of control remaining” value is reported as 116.564%. With `CN(Cc1nccn1C)c1nccc(N2CCN[C@H]3CS(=O)(=O)C[C@H]32)n1` [CBK307394] the “% of control remaining” value was 131.079%. For `Cn1c(=O)cc(NCCCCCC(=O)O)[nH]c1=O` [CBK286574], the “% of control remaining” value was 116.062%. `Cc1cccc(NC(=O)CN2C(=O)S/C(=C\c3cc(C)n(-c4ccc(N(C)C)cc4)c3C)C2=O)c1` [CBK264586] was tested, and the “% of control remaining” value was 123.659%. With `COCCOc1ccc(C(=O)N2CCN(c3ccccc3)CC2)cc1` [CBK304626] the “% of control remaining” value was 126.178%. `CC(=O)NCCOc1nc(N(C)C)nc(N2CCOCC2)n1` [CBK266651] was tested, and the “% of control remaining” value was 176.315%. `Cc1[nH]c2ccccc2c1CCNC(=O)N(Cc1cnn(C)c1)C1CC1` [CBK306661] was tested, and the “% of control remaining” value was 99.3334%. In the case of `CCOc1ccc(S(=O)(=O)Nc2ccc(O)c(C(=O)O)c2)cc1` [CBK299810], the “% of control remaining” value is reported as 102.657%. In the case of `COC(=O)c1sc(NC(=S)Nc2ccn(C)n2)c(C(=O)OC)c1C` [CBK267078], the “% of control remaining” value is reported as 186.71%. In the case of `CCOc1ccc(NC(=O)C(C)Sc2nc3ccc(F)cc3[nH]2)cc1` (stereo not drawn) [CBK266047], the “% of control remaining” value is reported as 98.7094%. For `COc1ccc2c(c1)CC(=O)NC21CCN(Cc2c(F)cccc2F)CC1` [CBK039835], the “% of control remaining” value was 106.205%. With `O=C(O)CCC(C(=O)O)N1C(=O)c2cc(Cl)c(Cl)cc2C1=O` (stereo not drawn) [CBK264156] the “% of control remaining” value was 118.886%. For `C[C@H]1[C@@H]2[C@@H](O)C([C@H](C)C(=O)N3CCCC3)CC[C@@]2(C)CC[C@@H]1NC(=O)c1ccccc1` (stereo partly drawn) [CBK289441], the “% of control remaining” value was 123.116%. For `Cc1cc2cccc(NC(=O)NCc3cncn3CC(C)C)c2o1` [CBK306715], the “% of control remaining” value was 125.687%. `Cc1nc(C2CCN(C(=O)CC3CCCC3)CC2)ncc1C(=O)Nc1ccc(Cl)cc1` [CBK285847] was tested, and the “% of control remaining” value was 115.119%. `CC(=O)Nc1nc2c3ccccc3n(C(C)=O)c2s1` [CBK011360] was tested, and the “% of control remaining” value was 100.086%.
